According to patent US12213962B2, “Drug resistant immunotherapy for treatment of a cancer” (Emory University, priority 2009, dated 2025):
“Also recorded” adds a separate entry of the source. At least one structure is not confirmed: it was looked up by name or label, or the drawing left a doubt.

How the values were obtained:
[1] = test system: gene-modified NK-92 cells; test: 48 hr survival curve / viability assay (trypan blue) after 6-BG/TMZ; type: cell-based, human; conditions: 48 hr viability assay
[2] = test system: cell surface stress antigens MICA/B; test: Stress antigen expression induced by chemotherapeutic agent; type: cell-based; conditions: FIG. 5 and FIG. 6
Glioblastoma = conditions: standard-of-care radiation and chemotherapy with temozolomide; cited from earlier work
[3] = test system: gene-modified TALL-104 cells; test: 48 hr survival curve / viability assay (trypan blue) after 6-BG/TMZ; type: cell-based, human; conditions: 48 hr viability assay
gene-modified K562 cells = test: as above; type: cell-based; conditions: 48 hr viability assay

For `Cn1nnc2c(C(N)=O)ncn2c1=O` [TMZ, temozolomide], the “resistance to TMZ, gene-modified vs unmodified cells” value (“resistance … vs unmodified cells” below) [1] is given as “three-fold”, the “expression of cell surface stress antigens MICA/B” value [2] is given as “induced; also recorded: transient” and the median survival (Glioblastoma) is given as 15 months. The “resistance … vs unmodified cells” value [3] was “three-fold” and the “resistance … vs unmodified cells” value (gene-modified K562 cells) was “three-fold”.
